Our source for the binding values is paper PMC8120461.

The chains behind the UniProt entries cited, without tags or fusion partners.
UniProt P35222: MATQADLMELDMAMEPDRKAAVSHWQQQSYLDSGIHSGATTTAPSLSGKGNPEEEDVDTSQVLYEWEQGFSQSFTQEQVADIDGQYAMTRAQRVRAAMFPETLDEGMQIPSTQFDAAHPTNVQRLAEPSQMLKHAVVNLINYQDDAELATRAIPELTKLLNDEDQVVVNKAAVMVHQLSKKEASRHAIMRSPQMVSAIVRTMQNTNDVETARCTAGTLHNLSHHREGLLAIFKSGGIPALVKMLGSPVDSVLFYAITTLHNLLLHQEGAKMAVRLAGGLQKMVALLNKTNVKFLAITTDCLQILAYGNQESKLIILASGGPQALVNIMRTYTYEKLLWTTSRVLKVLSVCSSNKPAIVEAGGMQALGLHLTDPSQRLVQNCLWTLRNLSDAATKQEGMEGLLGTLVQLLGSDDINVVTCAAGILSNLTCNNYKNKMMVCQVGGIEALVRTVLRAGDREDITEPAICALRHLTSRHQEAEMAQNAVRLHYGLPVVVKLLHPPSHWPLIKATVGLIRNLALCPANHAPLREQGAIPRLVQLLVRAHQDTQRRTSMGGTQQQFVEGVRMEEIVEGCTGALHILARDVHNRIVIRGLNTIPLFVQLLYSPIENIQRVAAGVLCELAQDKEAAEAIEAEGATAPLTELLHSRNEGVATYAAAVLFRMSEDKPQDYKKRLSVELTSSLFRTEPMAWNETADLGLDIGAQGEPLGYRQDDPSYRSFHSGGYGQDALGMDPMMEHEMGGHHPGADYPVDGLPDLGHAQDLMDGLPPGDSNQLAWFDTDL
UniProt P63104: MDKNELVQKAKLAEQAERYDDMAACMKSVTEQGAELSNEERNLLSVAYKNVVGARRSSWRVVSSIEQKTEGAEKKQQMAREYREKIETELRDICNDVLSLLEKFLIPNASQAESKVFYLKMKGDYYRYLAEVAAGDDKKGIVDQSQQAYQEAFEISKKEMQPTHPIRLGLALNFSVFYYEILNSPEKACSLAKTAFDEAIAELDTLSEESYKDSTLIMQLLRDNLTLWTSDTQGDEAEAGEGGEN

The target in this test is β-catenin (human (endogenous in GC cells)) (UniProt P35222). The test can be described thus: co-IP; IP/Co-IP kit (ABsin, #abs955); endogenous proteins in GC cells; antibodies against β-catenin and YWHAZ; which protein was precipitated is not told.

No constants are given. Whether binding was seen depends on the method and setting. In cells and extracts the contact can be indirect. Some entries that bind do so weakly or less than the wild type.

Take “YWHAZ protein (tyrosine 3-monooxygenase/tryptophan 5-monooxygenase activation protein zeta, 14-3-3ζ) (from UniProt P63104 1-245)”: the binding result is on record as “binds”.
